Test results reported in patent US20230110065A1, “COMBINATION OF ANETHOLE TRITHIONE OR ITS DERIVATIVE, 4-OH-ANETHOLE TRITHIONE, WITH DOXYCYCLINE OR MINOCYCLINE FOR THE USE THEREOF IN THE TREATMENT OF PARKINSON'S DISEASE” (priority 2020, published 2023).
For at least one compound, name, drawing or mass did not settle the structure.

Tests used:
[1] = tested on: dopaminergic neurons, toxicity by MPTP; conditions: acute model in mice, WO2017/042267; cited from earlier work
[2] = tested on: microglia in culture activated by PAM3CSK4 (TLR2 agonist); assay: TNF-a release (ELISA) in microglia in culture activated by PAM3CSK4; assay type: cell-based, mouse; conditions: ATX value depends on the activation paradigm (not assigned)
From the text: (§1) Purification of microglia: The cultures were produced from a cell suspension obtained by mechanical dissociation of the brains of newborn mice, C57BL/6J (Janvier LABS), according to a protocol described by Sepulveda-Diaz and colleagues (Glia, 2016) and modified subsequently by dos-Santos-Pereira and colleagues (Glia, 2020). The protocol used follows the directives of the Council of the European Union (2010/63/EU). It was approved by the Ethics Committee for Animal Experimentation, Charles Darwin no. 5. […]
(§2) Assessment of TNF-a levels: The culture medium of the microglia, recovered 24 hrs after the stimulation by the inflammogens was initiated, was then frozen at -20° C. until the analysis. TNF-a was detected with an ELISA kit from ThermoFisher (BMS607-3TWO), following the supplier’s instructions (dos-Santos-Pereira et al, Glia, 2020). The absorbance of each sample was measured at 450 nm with a SpectraMax i3X.
(§3) Statistical analysis: The experimental data were analyzed with the GraphPad Prism 8.3.1 software by applying a One-Way ANOVA test, followed by a post-hoc Student Newman Keuls test.

[3] = tested on: microglia in culture activated by LPS (TLR4 agonist); assay: TNF-a release (ELISA) in microglia in culture activated by LPS; assay type: cell-based, mouse; conditions: ATX value depends on the activation paradigm (not assigned)
From the text: as §1, §2, §3

Compound | Protection of dopaminergic neurons from toxicity by MPTP [1] | Concentration exerting anti-inflammatory effects [2] | Concentration exerting anti-inflammatory effects [3]
COc1ccc(-c2cc(=S)ss2)cc1 [ATT, anethole trithione] | protect dopaminergic neurons from toxicity by MPTP |  | 
Oc1ccc(-c2cc(=S)ss2)cc1 [ATX, 4-hydroxy-anethole trithione] |  | 10 or 30 µM | 10 or 30 µM
